Values quoted from earlier work as cited in patent publication US6806249B2, “Perfume containing surfactant compositions having perfume burst when diluted” (Unilever Home & Personal Care USA, a division of Conopco, priority 2002, dated 2004).
At least one structure is not confirmed: it was looked up by name or label, or the drawing left a doubt. Marks after values point to notes of the source that are not given here.

Settings: cited from earlier work

SMILES	CMC
CCC(CC)COCCOCCOCCOCCOCCOCCO [(C2H5)2CHCH2(OC2H4)6OH]	0.0366* wt./wt.
CCCC(CCC)COCCOCCOCCOCCOCCOCCO [(C3H7)2CHCH2(OC2H4)6OH]	0.0091* wt./wt.
